# Data from PubChem BioAssay AID1347076 (National Center for Advancing Translational Sciences (NCATS), 2019).
# Where “and” joins values, the source holds several entries; their conditions need not be identical. Identical values can stand only once. The whole screen tested about 400,000 compounds, of which about 13,000 (3.2%) were called active. The shares of active, inactive and inconclusive entries below differ from those in the screen. The call rests on the fitted dose curve; in most records, active means well fitted cell-killing curve with a large enough effect; inconclusive means small, poorly fitted or top-dose-only effect, or effect the other way; inactive means flat fitted curve, though single readings scatter. Potencies beside an inconclusive call are fits to weak or partial responses and may not hold up.
# Assay: qHTS assay for MDR1-selective chemotherapeutics: Primary screen using the drug-selected MDR subline cells KB-V1; further: nearly all actives have a fitted effect of over 60% in size
# Conditions: KB-V1 MDR cells viability, CellTiter-Glo, 72 h; activity change, negative = cytotoxicity: at 46.1 µM (top of the series)
# Method in brief: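 Potencies derive from concentration-effect curves fitted to normalized luminescence (CellTiter-Glo) of KB-V1 cells treated for 72 h at 37 degrees C in phenol-red-free DMEM containing 10% FBS.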
# On the % scale 0 is the no-effect control and ±100 the full control effect; potency means the concentration at half of the fitted maximal effect.
Structure (SMILES),Potency,"activity change, negative = cytotoxicity"
O=c1oc2ccc3ccccc3c2cc1-c1nnc(Nc2cc(C(F)(F)F)ccc2Cl)s1,"inconclusive: 29.1 µM [rising, partial curve, poor fit]",
Cc1ccc(O)c(NC(=O)c2nc3nc(C)cc(C(F)F)n3n2)c1,,inactive: -4.44%
Cc1nnsc1C(=O)Nc1ccc(S(=O)(=O)N2CCC(C)CC2)cc1,,inactive: -12.1%
O=C(COC(=O)c1nc(Cl)ccc1Cl)Nc1ncc(Cl)cc1Cl,"inconclusive: 29.1 µM [rising, single point]",
CCOC(=O)c1sc2ncn(/N=C/N(C)C)c(=O)c2c1C,"inconclusive: 16.4 µM [cytotoxic, partial curve]",
O=C(COc1ccc([N+](=O)[O-])cc1Cl)NCCc1ccccc1,active: 20.6 µM,
CC(=O)C1=C(O)CC(c2ccccc2)CC1=NCCc1c(C)[nH]c2ccccc12 (stereo unspecified),"inconclusive: 29.1 µM [cytotoxic, single point]",
O=C(COc1ccc2ccccc2c1Br)NCc1ccccn1,"inconclusive: 18.4 µM [cytotoxic, partial curve]",
CCc1ccc(CNC(=O)c2cc3c(s2)-c2ccccc2OC3)cc1,"inconclusive: 32.6 µM [cytotoxic, single point]",
CC(C)N(C(=O)[C@H]1C[C@H](CC(=O)NCCN2CCOCC2)C(=O)N2CCc3c([nH]c4cc(-c5ccco5)ccc34)[C@]12C)C(C)C,,inactive: 3.81%
O=C(COC(=O)CC1c2ccccc2CCN1S(=O)(=O)c1ccccc1)Nc1ccccc1 (stereo unspecified),"inconclusive: 20.6 µM [cytotoxic, single point]",
C[C@H](CO)N1C[C@H](C)[C@@H](CN(C)Cc2ccccc2)Oc2c(NC(=O)C3CCCCC3)cccc2C1=O,"inconclusive: 29.1 µM [cytotoxic, single point]",
O=S(=O)(c1cccc(Cl)c1)c1nnn2c1nc(NC1CCCC1)c1sccc12,,inactive: -10.2%
CN(Cc1cnn(-c2ccc(F)cc2)c1)C(=O)[C@H]1O[C@@H](n2ccc(=O)[nH]c2=O)[C@H](O)[C@@H]1O,,inactive: -3.53%
Cc1cccc(C(=O)NC(NCc2ccco2)C(Cl)(Cl)Cl)c1 (stereo unspecified),"inconclusive: 7.31 µM [cytotoxic, partial curve, poor fit]",
C(=C\c1ccccc1)/CN1CCN(C(c2ccccc2)c2nnnn2C2CCCCC2)CC1 (stereo unspecified),"inconclusive: 29.1 µM [cytotoxic, single point]",
Cc1cc2c(c(/C=C/C(=O)c3ccccc3)c1)OC1(C=C2)Oc2ccccc2C(=O)N1C (stereo unspecified),"inconclusive: 29.1 µM [cytotoxic, single point]",
CCCc1nnc(NC(=O)CCC(=O)N2CCN(CCOc3ccc(C)cc3)CC2)s1,"inconclusive: 29.1 µM [cytotoxic, single point]",
Cc1ccc(-c2cc(C(=O)NCCCn3ccnc3)c3cc(Br)ccc3n2)o1,active: 20.6 µM,
CCOc1cc(NC(=O)c2ccco2)c(OCC)cc1NC(=O)c1cc(OC)c(OC)c(OC)c1,"inconclusive: 1.84 µM [cytotoxic, full curve, poor fit]",
CCOC(=O)c1cc2c(=O)n3ccccc3nc2n(CC2CCCO2)c1=NC(=O)c1cc(C)cc(C)c1 (stereo unspecified),"inconclusive: 4.11 µM [cytotoxic, partial curve]",
COc1ccc2c(c1)CCc1c-2nc2ccccc2c1N1CCOCC1,"inconclusive: 23.1 µM [cytotoxic, single point]",

Structure (SMILES),Potency,"activity change, negative = cytotoxicity"
Cc1ccc(OCC(O)CNCc2ccccc2)cc1C (stereo unspecified),,inactive: -5.67%
Cc1ccc(NC(=O)NC(=O)CN2C(=O)NC3(CCc4ccccc43)C2=O)c(C)c1 (stereo unspecified),"inconclusive: 23.1 µM [cytotoxic, single point]",
S=c1[nH]nc(CN2CCCCC2)n1Cc1ccccc1,"inconclusive: 20.6 µM [cytotoxic, single point]",
CC1(C)Nc2cccc3cccc(c23)N1,,inactive: 21.6%
Cc1ccc(Cn2c(C3CCCN3c3nc(-c4ccc(F)cc4)cs3)nc3cc(Cl)c(Cl)cc32)cc1 (stereo unspecified),,inactive: 4.52%
COCCN(CC(=O)Nc1cccc(C)c1C)C(=O)/C=C/c1ccc2c(c1)OCCO2,,inactive: 5.65%
C/C(=N\NC(=O)C(=O)Nc1cccc(Cl)c1C)c1ccncc1,active: 20.6 µM,
CCOC(=O)C1CCCN(S(=O)(=O)c2ccc3c(c2)N(C)C(=O)CC(=O)N3C)C1 (stereo unspecified),"inconclusive: 13 µM [rising, single point]",
COc1ccc(/C=C2\CCC(C3CCCC3)C2=O)cc1Cn1cccn1 (stereo unspecified),active: 23.1 µM,
COC(=O)Cn1c(CN2CCOCC2)nc2c1c(=O)n(C)c(=O)n2C,,inactive: 11.6%
Cc1ccc(S(=O)(=O)N2CCN(C(=O)c3ccc(Br)o3)CC2)c(C)c1,"inconclusive: 20.6 µM [cytotoxic, single point]",
O=C(N/N=C/c1ccccn1)c1ccc(Br)o1,,inactive: -3.89%
COc1cc(OC)cc(C(=O)N(Cc2cc3cc(C)ccc3[nH]c2=O)C(C)C)c1,"inconclusive: 29.1 µM [cytotoxic, single point]",
COc1ccccc1S(=O)(=O)N(C)C[C@@H]1OCc2cnnn2CCCC(=O)N([C@H](C)CO)C[C@@H]1C,,inactive: -0.857%
COc1ccc(CCNC(=O)CN2C(=O)COc3ccc(S(=O)(=O)N4CCCCCC4)cc32)cc1OC,"inconclusive: 14.6 µM [cytotoxic, partial curve]",
Cc1cccc(NC(=O)CSc2nnc(-c3cc(C)n(-c4ccccc4)c3C)o2)c1C,,inactive: 0%
CCOC(=O)/C(C#N)=C(/C)c1ccc(OC)cc1,"inconclusive: 9.2 µM [rising, partial curve, poor fit]",
Cc1ccc(NC(=O)CCNS(=O)(=O)c2ccc(OC(F)(F)F)cc2)c(O)c1,"inconclusive: 29.1 µM [cytotoxic, partial curve, poor fit]",
C=CCc1cc(OC)ccc1OCC(O)CN1CCN(c2ccc(OC)cc2)CC1 (stereo unspecified),"inconclusive: 16.4 µM [cytotoxic, single point] and active: 18.4 µM",
COc1cccc(NC(=O)CSc2nncn2-c2ccccn2)c1,"inconclusive: 18.4 µM [cytotoxic, single point]",
Cc1onc(-c2ccccc2Cl)c1C(=O)NCc1nc(-c2ccc(C(F)(F)F)cc2)no1,"inconclusive: 29.1 µM [cytotoxic, single point]",
COc1ccc(N(CC(=O)Nc2cccc(C(C)=O)c2)S(=O)(=O)c2ccc(NC(C)=O)cc2)cc1,"inconclusive: 18.4 µM [rising, single point]",

Structure (SMILES),Potency,"activity change, negative = cytotoxicity"
O=c1cc(-c2ccccc2)c2ccc(O)cc2o1,,inactive: -18.6%
CCc1ccccc1NC(=O)C(=O)NCCc1sc(-c2cccc(C)c2)nc1C,"inconclusive: 7.31 µM [cytotoxic, partial curve]",
COC(=O)CN1C(=S)N(c2ccc(Cl)cc2)C(=O)C1CC(=O)Nc1ccc(F)cc1 (stereo unspecified),"inconclusive: 16.4 µM [cytotoxic, single point]",
Cc1nc(-c2ccc(NC(=O)c3ccc(Br)o3)cc2)cs1,"inconclusive: 20.6 µM [cytotoxic, single point]",
CCOP(=O)(OCC)C(Nc1cccc([N+](=O)[O-])c1)c1ccc(N(C)C)cc1 (stereo unspecified),"inconclusive: 2.59 µM [cytotoxic, partial curve, poor fit]",
COc1ccccc1NC(=O)CC1SC(=N)N(c2ccccc2)C1=O (stereo unspecified),"inconclusive: 29.1 µM [cytotoxic, single point]",
Cc1c(C(=O)N2CCN(C)CC2)oc2ccc(Br)cc12,"inconclusive: 6.51 µM [rising, full curve]",
CCOC(=O)N1CCN(C(=S)Nc2cccc(C)c2)CC1,active: 18.4 µM,
O=C(CN1CC[n+]2c(-c3ccccc3)csc21)c1ccc(Br)cc1,"inconclusive: 4.61 µM [cytotoxic, full curve, poor fit]",
Cc1ccc(Cl)cc1N1CCN(S(=O)(=O)c2ccc3c(c2)CC(=O)N3C)CC1,"inconclusive: 18.4 µM [cytotoxic, single point]",
O=C(Nc1cccc2cccnc12)c1ccc2sc([C@H]3C[C@H](O)[C@@H](CO)O3)nc2c1,,inactive: 2.51%
CSCCC(NC(=O)c1ccccc1Br)C(=O)NNC(=O)c1ccncc1 (stereo unspecified),,inactive: 14.1%
O=C(O)c1cccc(S(=O)(=O)Nc2ccc(Cc3ccncc3)cc2)c1,"inconclusive: 20.6 µM [rising, single point]",
CCOc1ccc(CN2CCN(S(=O)(=O)c3ccc(NC(C)=O)cc3)CC2)cc1OC,"inconclusive: 18.4 µM [cytotoxic, partial curve]",
CCOC(=O)c1noc2nc(C)n(CC(=O)Nc3ccc(Br)cc3C)c(=O)c12,,inactive: 0%
CCOc1ccccc1N(CC)C(=O)c1cc2c(=O)n(CC)c3ccccc3c2s1,active: 20.6 µM,
O=C(NCCS(=O)(=O)N1CCN(c2ccccc2F)CC1)c1ccc2c(c1)OCO2,"inconclusive: 0.0065 µM [cytotoxic, full curve, poor fit]",
Cc1ccc(CN(C(=O)c2ccc([N+](=O)[O-])cc2)c2ccccn2)cc1,,inactive: -19%
Cc1cc(F)ccc1S(=O)(=O)N1CCCOC1CNC(=O)C(=O)NCC(C)C (stereo unspecified),"inconclusive: 18.4 µM [cytotoxic, partial curve, poor fit]",
COc1ccc(/C=C/C(=O)NC(=S)NNC(=O)c2cc(OC)c(OC)c(OC)c2)cc1OC,"inconclusive: 16.4 µM [cytotoxic, partial curve, poor fit]",
CCN(CC)S(=O)(=O)c1cccc(-c2n[nH]c(=S)n2C)c1,"inconclusive: 29.1 µM [rising, single point]",
COc1ccc(-c2ccc(C(c3c(C)[nH][nH]c3=O)c3c(C)[nH][nH]c3=O)o2)c([N+](=O)[O-])c1,"inconclusive: 29.1 µM [cytotoxic, single point]",
